Results reported in patent US12365761B2, “Biodegradable ultra-pH sensitive polymers” (priority 2019, dated 2025).
Some results were stated once for a whole list of compounds, not compound by compound.

Tested on: TC-1 tumor model
Assay: PSC7A nanovaccine tumor therapy, TC-1 tumor model
Format: in vivo, C57BL/6 mice
Conditions: TC-1 model, after tumor inoculation; E7p only or PSC7A NP only
From the text: The nanovaccine was made by physically mixing tumor specific antigenic peptides and PSC7A nanoparticles. Non-degradable PC7A based nanovaccines were used for comparison. […] Tumor growth was subsequently measured using a digital caliper and calculated as 0.5×length×width^2. Mice were sacrificed when the tumor volumes reached 2000 mm^3.
PSC7A nanoparticles were first produced and then mixed with tumor-specific antigenic peptides. Human papilloma virus (HPV) E6/E7-transfected TC-1 and murine B16-F10 melanoma tumor models were used. […] In the TC-1 model, E7 peptide antigen (E7p, […] (SEQ. No. 1)) was used. […] Most of the animals were lost within 30 days after tumor inoculation.

## GQAEPDRAHYNIVTFCCKCD [E7p]
  time within which most of the animals were lost: ≤ 30 days
